In test [1] the target is GFP-HRAS (Homo sapiens (Human)) (UniProt P01112). In words: co-immunoprecipitation with anti-Flag antibody from HEK293T cells, anti-GFP blot.
Test [2] addresses K-RAS (Homo sapiens (Human)) (UniProt P01116). In words: co-immunoprecipitation with anti-Flag antibody, blot.

No constants are given. Whether binding was seen depends on the method and setting. Binding seen in cells or lysates may run through a third protein. Some binding calls cover weakened binding; strength is not graded here. Where a sequence is shown, tags or fusion partners need not be part of it.

B1: Flag-PIASγ (enzyme, UniProt Q8N2W9 1-510, looked up, not shown: small tags and cut ends)
chain: MAAELVEAKNMVMSFRVSDLQMLLGFVGRSKSGLKHELVTRALQLVQFDCSPELFKKIKELYETRYAKKNSEPAPQPHRPLDPLTMHSTYDRAGAVPRTPLAGPNIDYPVLYGKYLNGLGRLPAKTLKPEVRLVKLPFFNMLDELLKPTELVPQNNEKLQESPCIFALTPRQVELIRNSRELQPGVKAVQVVLRICYSDTSCPQEDQYPPNIAVKVNHSYCSVPGYYPSNKPGVEPKRPCRPINLTHLMYLSSATNRITVTWGNYGKSYSVALYLVRQLTSSELLQRLKTIGVKHPELCKALVKEKLRLDPDSEIATTGVRVSLICPLVKMRLSVPCRAETCAHLQCFDAVFYLQMNEKKPTWMCPVCDKPAPYDQLIIDGLLSKILSECEDADEIEYLVDGSWCPIRAEKERSCSPQGAILVLGPSDANGLLPAPSVNGSGALGSTGGGGPVGSMENGKPGADVVDLTLDSSSSSEDEEEEEEEEEDEDEEGPRPKRRCPFQKGLVPAC
In the case of B1, the binding entry in test [1] and in test [2] was “binds” in each case.

For the origin of these results see US20170291958A1, “Compositions and Methods For the Modulation of Ras Proteins” (NEW YORK UNIVERSITY, priority 2016, published 2017).
